Seven molecules from publication doi:10.1101/2023.12.07.570558 (bioRxiv, 2023) can be followed below.

Sequences of proteins named here, by UniProt entry; tags and fusion partners are left off.
UniProt Q96EB6: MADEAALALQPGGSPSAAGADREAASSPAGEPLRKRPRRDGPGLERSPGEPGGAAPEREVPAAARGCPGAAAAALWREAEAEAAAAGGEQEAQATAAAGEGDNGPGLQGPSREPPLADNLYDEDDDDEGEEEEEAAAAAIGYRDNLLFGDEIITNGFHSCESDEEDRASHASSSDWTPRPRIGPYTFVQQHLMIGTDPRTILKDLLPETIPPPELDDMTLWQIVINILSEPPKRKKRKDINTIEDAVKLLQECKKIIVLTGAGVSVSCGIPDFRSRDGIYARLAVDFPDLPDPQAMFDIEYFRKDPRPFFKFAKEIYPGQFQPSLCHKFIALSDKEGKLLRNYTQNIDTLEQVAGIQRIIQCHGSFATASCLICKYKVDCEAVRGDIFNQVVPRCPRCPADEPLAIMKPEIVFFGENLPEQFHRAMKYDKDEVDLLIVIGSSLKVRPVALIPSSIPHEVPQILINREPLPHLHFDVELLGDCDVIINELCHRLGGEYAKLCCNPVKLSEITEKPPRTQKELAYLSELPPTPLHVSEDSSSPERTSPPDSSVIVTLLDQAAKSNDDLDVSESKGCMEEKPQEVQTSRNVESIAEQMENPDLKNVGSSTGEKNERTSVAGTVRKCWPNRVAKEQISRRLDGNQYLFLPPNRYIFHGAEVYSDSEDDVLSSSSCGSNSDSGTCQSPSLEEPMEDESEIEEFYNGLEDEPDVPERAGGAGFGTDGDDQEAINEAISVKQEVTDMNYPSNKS
UniProt O35625: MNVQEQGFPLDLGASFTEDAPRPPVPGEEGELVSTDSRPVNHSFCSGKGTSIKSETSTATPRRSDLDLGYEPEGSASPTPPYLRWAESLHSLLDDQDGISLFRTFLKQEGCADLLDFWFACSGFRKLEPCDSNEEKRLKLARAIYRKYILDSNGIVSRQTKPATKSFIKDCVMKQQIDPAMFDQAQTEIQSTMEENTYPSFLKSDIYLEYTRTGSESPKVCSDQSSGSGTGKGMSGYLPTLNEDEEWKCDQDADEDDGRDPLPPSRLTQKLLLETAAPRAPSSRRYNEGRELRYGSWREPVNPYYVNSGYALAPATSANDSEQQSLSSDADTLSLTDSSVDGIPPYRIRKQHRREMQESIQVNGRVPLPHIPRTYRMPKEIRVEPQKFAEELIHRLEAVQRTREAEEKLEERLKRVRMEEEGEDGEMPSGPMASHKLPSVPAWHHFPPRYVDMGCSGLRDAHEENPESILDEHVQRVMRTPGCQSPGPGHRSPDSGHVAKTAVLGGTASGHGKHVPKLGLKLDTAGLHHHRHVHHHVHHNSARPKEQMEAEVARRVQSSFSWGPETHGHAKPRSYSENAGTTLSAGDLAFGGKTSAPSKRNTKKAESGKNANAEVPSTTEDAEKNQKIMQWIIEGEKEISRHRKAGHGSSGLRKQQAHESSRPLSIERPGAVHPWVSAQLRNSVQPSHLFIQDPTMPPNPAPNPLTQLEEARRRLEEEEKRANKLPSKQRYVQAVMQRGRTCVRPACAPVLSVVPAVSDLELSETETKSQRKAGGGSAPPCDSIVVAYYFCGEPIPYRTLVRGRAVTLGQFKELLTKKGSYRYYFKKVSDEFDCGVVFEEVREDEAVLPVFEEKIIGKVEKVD
UniProt Q8N6T7: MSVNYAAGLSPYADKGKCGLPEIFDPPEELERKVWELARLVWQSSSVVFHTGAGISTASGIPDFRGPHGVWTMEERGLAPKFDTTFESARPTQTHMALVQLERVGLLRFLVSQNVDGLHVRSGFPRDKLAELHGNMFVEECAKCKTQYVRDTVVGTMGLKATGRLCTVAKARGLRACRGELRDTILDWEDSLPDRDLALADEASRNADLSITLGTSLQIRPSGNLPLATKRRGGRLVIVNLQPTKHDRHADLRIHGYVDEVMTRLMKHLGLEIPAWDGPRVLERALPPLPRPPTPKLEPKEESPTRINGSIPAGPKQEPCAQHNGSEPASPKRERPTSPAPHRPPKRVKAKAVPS
UniProt Q9NRC8: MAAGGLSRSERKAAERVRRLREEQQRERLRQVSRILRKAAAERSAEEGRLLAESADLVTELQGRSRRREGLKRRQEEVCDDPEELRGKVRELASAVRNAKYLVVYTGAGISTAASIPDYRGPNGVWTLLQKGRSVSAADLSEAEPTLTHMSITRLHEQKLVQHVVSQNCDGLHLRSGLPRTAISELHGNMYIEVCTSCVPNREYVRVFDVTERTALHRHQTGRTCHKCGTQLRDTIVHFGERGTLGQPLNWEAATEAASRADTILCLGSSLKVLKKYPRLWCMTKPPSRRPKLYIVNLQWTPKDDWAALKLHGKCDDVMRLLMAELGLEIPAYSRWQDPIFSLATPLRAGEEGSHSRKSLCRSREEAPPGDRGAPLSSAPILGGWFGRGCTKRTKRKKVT

What all share (assay): co-IP
Experiment [1] concerns the target T1, Myc-tagged TULP3 (expressed in HEK293T cells) (human) (UniProt O75386).
T1 sequence: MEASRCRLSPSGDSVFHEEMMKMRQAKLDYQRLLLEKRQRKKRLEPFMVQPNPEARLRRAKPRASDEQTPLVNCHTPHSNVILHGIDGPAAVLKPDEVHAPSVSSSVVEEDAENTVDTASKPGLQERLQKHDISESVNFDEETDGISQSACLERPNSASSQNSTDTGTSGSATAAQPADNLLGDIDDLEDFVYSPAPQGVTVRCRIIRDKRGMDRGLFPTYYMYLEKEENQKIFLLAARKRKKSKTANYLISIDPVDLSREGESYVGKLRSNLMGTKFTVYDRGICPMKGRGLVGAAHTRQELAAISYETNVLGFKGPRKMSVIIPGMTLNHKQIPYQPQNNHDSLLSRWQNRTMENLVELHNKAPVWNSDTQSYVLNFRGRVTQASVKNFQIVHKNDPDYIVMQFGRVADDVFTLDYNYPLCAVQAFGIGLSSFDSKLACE

Experiment [2] addresses T1, Myc-tagged TULP3 (expressed in HEK293T cells) (human). This is another data set of the same source.
The target in experiment [3] is HA-tagged SIRT1 (expressed in HEK293T cells) (human) (UniProt Q96EB6).
Experiment [4] concerns the target AXIN (mouse (endogenous in MEFs)) (UniProt O35625).

Like-named read-outs stand apart in the source and are kept apart here. No constants are given. Whether binding was seen depends on the method and setting. Binding seen in cells or lysates may run through a third protein. Some results given as binding are weak or reduced against the parent protein; the word gives no strength. For some of these results: Where a sequence is shown, tags or fusion partners need not be part of it.

Consider “HA-tagged SIRT6 (from UniProt Q8N6T7 1-355) (enzyme)”, for which the binding result in experiment [1] is reported as “binds”.
The same measure, in the same setting: under “HA-tagged SIRT1 (expressed in HEK293T cells) (from UniProt Q96EB6) (enzyme)” stands “binds”.
The same measure, in the same setting: under “HA-tagged SIRT7 (from UniProt Q9NRC8 1-400) (enzyme)” stands “binds”.

B1: HA-tagged SIRT4 (enzyme, UniProt Q9Y6E7 29-314)
chain: IGLFVPASPPLDPEKVKELQRFITLSKRLLVMTGAGISTESGIPDYRSEKVGLYARTDRRPIQHGDFVRSAPIRQRYWARNFVGWPQFSSHQPNPAHWALSTWEKLGKLYWLVTQNVDALHTKAGSRRLTELHGCMDRVLCLDCGEQTPRGVLQERFQVLNPTWSAEAHGLAPDGDVFLSEEQVRSFQVPTCVQCGGHLKPDVVFFGDTVNPDKVDFVHKRVKEADSLLVVGSSLQVYSGYRFILTAWEKKLPIAILNIGPTRSDDLACLKLNSRCGELLPLIDPC
B1: the binding entry in experiment [2] is “binds”.

B2: HA-tagged SIRT2 (enzyme, UniProt Q8IXJ6 1-389)
chain: MAEPDPSHPLETQAGKVQEAQDSDSDSEGGAAGGEADMDFLRNLFSQTLSLGSQKERLLDELTLEGVARYMQSERCRRVICLVGAGISTSAGIPDFRSPSTGLYDNLEKYHLPYPEAIFEISYFKKHPEPFFALAKELYPGQFKPTICHYFMRLLKDKGLLLRCYTQNIDTLERIAGLEQEDLVEAHGTFYTSHCVSASCRHEYPLSWMKEKIFSEVTPKCEDCQSLVKPDIVFFGESLPARFFSCMQSDFLKVDLLLVMGTSLQVQPFASLISKAPLSTPRLLINKEKAGQSDPFLGMIMGLGGGMDFDSKKAYRDVAWLGECDQGCLALAELLGWKKELEDLVRREHASIDAQSGAGVPNPSTSASPKKSPPPAKDEARTTEREKPQ
As for B2, the binding result in experiment [2] is “binds”.

B3: His-tagged TULP3 (bacterially expressed) (natural protein)
chain: T1 sequence
As to B3, in experiment [3], the binding entry is recorded as “binds”.

B4: liver kinase B1 (LKB1) (enzyme, UniProt Q9WTK7 1-436)
chain: MDVADPEPLGLFSEGELMSVGMDTFIHRIDSTEVIYQPRRKRAKLIGKYLMGDLLGEGSYGKVKEVLDSETLCRRAVKILKKKKLRRIPNGEANVKKEIQLLRRLRHRNVIQLVDVLYNEEKQKMYMVMEYCVCGMQEMLDSVPEKRFPVCQAHGYFRQLIDGLEYLHSQGIVHKDIKPGNLLLTTNGTLKISDLGVAEALHPFAVDDTCRTSQGSPAFQPPEIANGLDTFSGFKVDIWSAGVTLYNITTGLYPFEGDNIYKLFENIGRGDFTIPCDCGPPLSDLLRGMLEYEPAKRFSIRQIRQHSWFRKKHPLAEALVPIPPSPDTKDRWRSMTVVPYLEDLHGRAEEEEEEDLFDIEDGIIYTQDFTVPGQVLEEEVGQNGQSHSLPKAVCVNGTEPQLSSKVKPEGRPGTANPARKVCSSNKIRRLSACKQQ
As for B4, the binding result in experiment [4] is reported as “binds”.
